The list does not hold the whole screen: it gathers some chemical classes. Not every dose and run of a compound is shown. T/C: endpoint of the treated group in % of that of the vehicle group. Where survival is the endpoint, the PubChem record calls one and a half times the control and up active, and a quarter to a half above the control has no call in these data; cut-offs in other NCI protocols can differ. Schedules are NCI's codes, taken here to give the interval after Q, in days (D) or hours (H), and the number of doses after X. Some entries show no survivor count and are marked so; the dose need not have been tolerated. Some doses were run more than once; their values stand side by side, smallest first.
Test system: P388 leukemia ip, CD2F1 mice, survival T/C
Assay: NCI In Vivo Anticancer Drug Screen. Data for tumor model P388 Leukemia (intraperitoneal) in CD2F1 (CDF1) mice
Settings: T/C endpoint: median survival time, higher T/C = longer survival
[1] = dose: 0.5 mg/kg/injection, schedule: Q01DX009 (ip), vehicle: saline
[2] = dose: 1.0 mg/kg/injection, schedule: Q01DX009 (ip), vehicle: saline
[3] = dose: 2.0 mg/kg/injection, schedule: Q01DX009 (ip), vehicle: saline

With `CC(=O)OC[C@]12C[C@H](OC(=O)CC(C)C)C(C)=C[C@H]1OC1[C@H](O)[C@@H](OC(C)=O)[C@@]2(C)[C@@]12CO2` the T/C (dose: 0.06 mg/kg/injection, schedule: Q03HX008 (ip), vehicle: Klucel (hydroxypropylcellulose) (HPC)) was 130 % of control [survivor count not shown], the T/C (dose: 0.06 mg/kg/injection, schedule: Q03HX016 (ip), vehicle: Klucel (hydroxypropylcellulose) (HPC)) was 110 % of control [survivor count not shown] and the T/C (dose: 0.06 mg/kg/injection, schedule: Q03HX024 (ip), vehicle: Klucel (hydroxypropylcellulose) (HPC)) was 120 % of control [survivor count not shown]. For the same compound, the T/C (dose: 0.08 mg/kg/injection, schedule: Q01DX009 (ip), vehicle: saline with Tween-80) was 131 % of control [survivor count not shown], the T/C (dose: 0.13 mg/kg/injection, schedule: Q01DX009 (ip), vehicle: Klucel (hydroxypropylcellulose) (HPC)) was 145 % of control [survivor count not shown] and the T/C (dose: 0.13 mg/kg/injection, schedule: Q01DX009 (sc), vehicle: Klucel (hydroxypropylcellulose) (HPC)) was 110 % of control [survivor count not shown]. The T/C (dose: 0.15 mg/kg/injection, schedule: Q01DX009 (ip), vehicle: saline with Tween-80) was 142 % of control [survivor count not shown], the T/C (dose: 0.25 mg/kg/injection, schedule: Q01DX009 (ip), vehicle: Klucel (hydroxypropylcellulose) (HPC), evaluated on day 30) was 127 % of control [survivor count not shown] and the T/C (dose: 0.25 mg/kg/injection, schedule: Q01DX009 (ip), vehicle: Klucel (hydroxypropylcellulose) (HPC), evaluated on day 60) was 170 % of control [survivor count not shown]. The T/C (dose: 0.25 mg/kg/injection, schedule: Q01DX009 (sc), vehicle: Klucel (hydroxypropylcellulose) (HPC)) was 145 % of control [survivor count not shown], the T/C (dose: 0.3 mg/kg/injection, schedule: Q01DX009 (ip), vehicle: saline with Tween-80) was 147 % of control [survivor count not shown] and the T/C (dose: 0.5 mg/kg/injection, schedule: Q01DX001 (ip), vehicle: Klucel (hydroxypropylcellulose) (HPC)) was 120 % of control [survivor count not shown]. The T/C (dose: 0.5 mg/kg/injection, schedule: Q01DX009 (ip), vehicle: Klucel (hydroxypropylcellulose) (HPC), evaluated on day 30) was 140 % of control [survivor count not shown], the T/C (dose: 0.5 mg/kg/injection, schedule: Q01DX009 (ip), vehicle: Klucel (hydroxypropylcellulose) (HPC), evaluated on day 60) was 185 % of control [survivor count not shown] and the T/C (dose: 0.5 mg/kg/injection, schedule: Q01DX009 (oral), vehicle: Klucel (hydroxypropylcellulose) (HPC)) was 110 % of control [survivor count not shown]. The T/C (dose: 0.5 mg/kg/injection, schedule: Q01DX009 (sc), vehicle: Klucel (hydroxypropylcellulose) (HPC)) was 170 % of control [survivor count not shown], the T/C (dose: 0.5 mg/kg/injection, schedule: Q04DX003 (ip), vehicle: Klucel (hydroxypropylcellulose) (HPC)) was 150 % of control [survivor count not shown] and the T/C (dose: 0.5 mg/kg/injection, schedule: Q08DX002 (ip), vehicle: Klucel (hydroxypropylcellulose) (HPC)) was 120 % of control [survivor count not shown]. For the same compound, the T/C (dose: 0.6 mg/kg/injection, schedule: Q01DX009 (ip), vehicle: saline with Tween-80) was 177 % of control [survivor count not shown], the T/C (dose: 1.0 mg/kg/injection, schedule: Q01DX001 (ip), vehicle: Klucel (hydroxypropylcellulose) (HPC)) was 130 % of control [survivor count not shown] and the T/C (dose: 1.0 mg/kg/injection, schedule: Q01DX009 (ip), vehicle: Klucel (hydroxypropylcellulose) (HPC), evaluated on day 30) was 200 % of control [survivor count not shown]. The T/C (dose: 1.0 mg/kg/injection, schedule: Q01DX009 (ip), vehicle: Klucel (hydroxypropylcellulose) (HPC), evaluated on day 60) was 195 % of control [survivor count not shown], the T/C (dose: 1.0 mg/kg/injection, schedule: Q04DX003 (ip), vehicle: Klucel (hydroxypropylcellulose) (HPC)) was 170 % of control [survivor count not shown] and the T/C (dose: 1.0 mg/kg/injection, schedule: Q08DX002 (ip), vehicle: Klucel (hydroxypropylcellulose) (HPC)) was 130 % of control [survivor count not shown]. The T/C (dose: 1.2 mg/kg/injection, schedule: Q01DX009 (ip), vehicle: saline with Tween-80) was 209 % of control [survivor count not shown], the T/C (dose: 2.0 mg/kg/injection, schedule: Q01DX001 (ip), vehicle: Klucel (hydroxypropylcellulose) (HPC)) was 135 % of control [survivor count not shown] and the T/C (dose: 2.0 mg/kg/injection, schedule: Q01DX009 (ip), vehicle: Klucel (hydroxypropylcellulose) (HPC)) was 240 % of control [survivor count not shown]. For the same compound, the T/C (dose: 2.0 mg/kg/injection, schedule: Q01DX009 (oral), vehicle: Klucel (hydroxypropylcellulose) (HPC)) was 180 % of control [survivor count not shown], the T/C (dose: 2.0 mg/kg/injection, schedule: Q04DX003 (ip), vehicle: Klucel (hydroxypropylcellulose) (HPC)) was 190 % of control [survivor count not shown] and the T/C (dose: 2.0 mg/kg/injection, schedule: Q08DX002 (ip), vehicle: Klucel (hydroxypropylcellulose) (HPC)) was 150 % of control [survivor count not shown]. For the same compound, the T/C (dose: 4.0 mg/kg/injection, schedule: Q01DX001 (ip), vehicle: Klucel (hydroxypropylcellulose) (HPC)) was 140 % of control [survivor count not shown], the T/C (dose: 4.0 mg/kg/injection, schedule: Q04DX003 (ip), vehicle: Klucel (hydroxypropylcellulose) (HPC)) was 190 % of control [survivor count not shown] and the T/C (dose: 4.0 mg/kg/injection, schedule: Q08DX002 (ip), vehicle: Klucel (hydroxypropylcellulose) (HPC)) was 150 % of control [survivor count not shown]. For the same compound, the T/C (dose: 8.0 mg/kg/injection, schedule: Q01DX001 (ip), vehicle: Klucel (hydroxypropylcellulose) (HPC)) was 150 % of control [survivor count not shown].
With `CC1=C[C@H]2O[C@@H]3[C@H](O)[C@@H](O)[C@](C)([C@@]2(CO)CC1)[C@@]31CO1` the T/C [1] was 116 [survivor count not shown], 125 [survivor count not shown], 130 % of control [survivor count not shown], the T/C [2] was 125 [survivor count not shown], 137 [survivor count not shown], 142 % of control [survivor count not shown] and the T/C [3] was 134 [survivor count not shown], 135 [survivor count not shown], 148 % of control [survivor count not shown]. For the same compound, the T/C (dose: 4.0 mg/kg/injection, schedule: Q01DX009 (ip), vehicle: saline) was 127 [survivor count not shown], 136 [survivor count not shown], 138 % of control [survivor count not shown], the T/C (dose: 8.0 mg/kg/injection, schedule: Q01DX009 (ip), vehicle: saline) was 163 % of control [survivor count not shown] and the T/C (dose: 16.0 mg/kg/injection, schedule: Q01DX009 (ip), vehicle: saline) was 92 % of control [survivor count not shown].
`CC1=CC2OC3CC4OC(=O)/C=C/C=C/C(=O)OCC/C(C)=C/C(=O)OCC2(CC1O)C4(C)C31CO1` (centres undefined) was tested, and the T/C (dose: 0.15 mg/kg/injection, schedule: Q01DX009 (ip), vehicle: saline + alcohol) was 127 [survivor count not shown] and 133 % of control [survivor count not shown], the T/C (dose: 0.31 mg/kg/injection, schedule: Q01DX009 (ip), vehicle: saline + alcohol) was 144 [survivor count not shown] and 150 % of control [survivor count not shown] and the T/C (dose: 0.62 mg/kg/injection, schedule: Q01DX009 (ip), vehicle: saline + alcohol) was 153 [survivor count not shown] and 169 % of control [survivor count not shown]. For the same compound, the T/C (dose: 1.25 mg/kg/injection, schedule: Q01DX009 (ip), vehicle: saline + alcohol) was 153 [survivor count not shown] and 181 % of control [survivor count not shown] and the T/C (dose: 2.5 mg/kg/injection, schedule: Q01DX009 (ip), vehicle: saline + alcohol) was 166 % of control [survivor count not shown].
`CC(=O)OC[C@]12C[C@H](OC(=O)CC(C)C)C(C)=C[C@H]1O[C@@H]1[C@H](O)[C@@H](O)[C@@]2(C)[C@@]12CO2` was tested, and the T/C (dose: 0.25 mg/kg/injection, schedule: Q01DX009 (ip), vehicle: saline) was 159 % of control [survivor count not shown], the T/C [1] was 133 [survivor count not shown], 170 [survivor count not shown], 192 % of control [survivor count not shown] and the T/C [2] was 147 [survivor count not shown], 167 [survivor count not shown], 230 % of control [survivor count not shown]. The T/C [3] was 146 [survivor count not shown] and 147 % of control [survivor count not shown].

— PubChem BioAssay AID330 (DTP/NCI, 2004)
